From paper PMC9277809 come the findings set out here.

Assay [1] addresses T1, OsNPR3-HA (rice (Oryza sativa L.)) (UniProt Q75HA6).
T1 sequence: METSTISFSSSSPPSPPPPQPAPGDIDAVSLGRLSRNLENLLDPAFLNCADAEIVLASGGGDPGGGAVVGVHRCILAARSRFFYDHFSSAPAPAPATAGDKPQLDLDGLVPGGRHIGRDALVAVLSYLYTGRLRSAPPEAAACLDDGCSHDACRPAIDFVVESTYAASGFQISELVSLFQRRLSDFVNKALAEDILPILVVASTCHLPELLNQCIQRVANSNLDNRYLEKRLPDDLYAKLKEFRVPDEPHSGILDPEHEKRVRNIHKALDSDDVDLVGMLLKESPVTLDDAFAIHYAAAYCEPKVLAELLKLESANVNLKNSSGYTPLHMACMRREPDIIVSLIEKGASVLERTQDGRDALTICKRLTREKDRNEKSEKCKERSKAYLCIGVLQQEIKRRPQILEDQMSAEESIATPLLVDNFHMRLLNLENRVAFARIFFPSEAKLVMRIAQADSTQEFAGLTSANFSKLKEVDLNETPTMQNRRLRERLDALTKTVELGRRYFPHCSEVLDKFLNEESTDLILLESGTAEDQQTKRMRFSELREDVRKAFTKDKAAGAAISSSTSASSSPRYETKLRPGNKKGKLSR
The assay is described as follows: co-IP; GFP-tagged substrate and HA-tagged E3 co-expressed in N. benthamiana leaves by agro-infiltration, 72 h; immunoprecipitated with anti-HA/agarose beads; blot with anti-GFP or anti-HA.

For assay [2], the target named is T2, OsNPR2-HA (rice (Oryza sativa L.)) (UniProt Q0JJ01).
T2 sequence: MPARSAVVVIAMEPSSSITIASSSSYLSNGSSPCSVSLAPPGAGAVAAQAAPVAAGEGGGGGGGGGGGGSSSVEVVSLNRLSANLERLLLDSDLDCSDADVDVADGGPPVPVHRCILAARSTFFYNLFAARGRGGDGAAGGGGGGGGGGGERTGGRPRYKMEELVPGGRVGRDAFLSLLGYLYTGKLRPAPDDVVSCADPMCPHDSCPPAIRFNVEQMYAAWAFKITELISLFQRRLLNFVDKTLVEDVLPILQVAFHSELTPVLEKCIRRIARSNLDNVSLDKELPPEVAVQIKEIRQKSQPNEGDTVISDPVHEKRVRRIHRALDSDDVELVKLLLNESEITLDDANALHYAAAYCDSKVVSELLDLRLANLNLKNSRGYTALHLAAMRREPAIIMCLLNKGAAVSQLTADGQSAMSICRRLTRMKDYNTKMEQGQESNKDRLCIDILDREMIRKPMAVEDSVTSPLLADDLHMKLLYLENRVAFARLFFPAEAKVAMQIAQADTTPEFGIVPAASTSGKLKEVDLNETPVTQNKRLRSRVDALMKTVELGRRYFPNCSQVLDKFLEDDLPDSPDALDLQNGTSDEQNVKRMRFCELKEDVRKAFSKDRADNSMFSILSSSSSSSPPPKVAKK
Described as above.

Results are given in words; binding and its absence hold for the method and conditions named. Binding seen in cells or lysates may run through a third protein. Some entries that bind do so weakly or less than the wild type. Sequences can lack the tags named with a protein.

B1: NRR-GFP (protein, UniProt Q5ZEF1 1-127)
chain: MDATTTAKRKRPAASDIADDAPTTVDEVSDAEVEEFYAILRRMRDATRRLGARPPPPRAPAWRPSFSWEDFADAPPKQAPPPPQQPADHERVAENATPPRRPAPGLDLNVEPPSDAPATPRSARAPA
Regarding B1, the binding result in assay [1] and in assay [2] was “binds” each time.
